PubChem BioAssay AID686937, Drosophila RNAi Screening Center – 2013

Screen: 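Genes whose loss weakens secretory pathway function in fly cells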 (primary screen)
System: Drosophila S2 cells expressing secreted horseradish peroxidase
Reagents: long dsRNA against Drosophila genes
Time to read-out: about 5.5 days (5 days dsRNA, then 12 h reporter induction)
Treatment: reporter expression induced after 5 days of dsRNA, read 12 h later; inducer not stated
Measured: 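After 5 days of dsRNA and 12 h of reporter induction, medium peroxidase read by chemiluminescence and scored as per-plate z-score; higher values mean more reporter released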
Scale: z-score: higher = more reporter secreted into medium
In all, the deposit lists about 23,000 reagents; shown is a random part of those with a known target gene and a result. 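Reduced-secretion tags in replicate 1 do not always agree with the z-scores; no criterion for assigning the tags was given.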 Reagents against one gene are numbered here. Names joined by + are all predicted targets of the reagent. Not all columns of the deposit are shown. Not given: the amount of reagent.

{"target gene": "CG12991", "reagent no.": 1, "z-score, replicate 1": 0.36}
{"target gene": "Ugt50B3 (UDP-glycosyltransferase family 50 member B3)", "reagent no.": 1, "z-score, replicate 1": 0.47}
{"target gene": "Ugt50B3 (UDP-glycosyltransferase family 50 member B3)", "reagent no.": 2, "z-score, replicate 1": 0.16}
{"target gene": "Ugt50B3 (UDP-glycosyltransferase family 50 member B3)", "reagent no.": 3, "z-score, replicate 1": -1.08}
{"target gene": "Lipt1 + CG42837", "reagent no.": 1, "z-score, replicate 1": 0.46}
{"target gene": "CG43331", "reagent no.": 1, "z-score, replicate 1": -0.14}
{"target gene": "CG11134", "reagent no.": 1, "z-score, replicate 1": -1.34}
{"target gene": "CG14572", "reagent no.": 1, "z-score, replicate 1": 0.36}
{"target gene": "CG13284", "reagent no.": 1, "z-score, replicate 1": 0.62}
{"target gene": "Tob (Transducer of ERBB2)", "reagent no.": 1, "z-score, replicate 1": 0.35}
{"target gene": "mex1 (midgut expression 1)", "reagent no.": 1, "z-score, replicate 1": 0.61}
{"target gene": "CG6701", "reagent no.": 1, "z-score, replicate 1": -1.65}
{"target gene": "EndoG (Endonuclease G)", "reagent no.": 1, "z-score, replicate 1": 0.14}
{"target gene": "EndoG (Endonuclease G)", "reagent no.": 2, "z-score, replicate 1": 0.91}
{"target gene": "EMC8-9 (ER membrane protein complex subunit 8/9)", "reagent no.": 1, "z-score, replicate 1": -0.01}
{"target gene": "Lrr47 (Leucine-rich repeat 47)", "reagent no.": 1, "z-score, replicate 1": -0.61}
{"target gene": "CG43183", "reagent no.": 1, "z-score, replicate 1": 0.34}
{"target gene": "side-IV + asRNA:CR17025", "reagent no.": 1, "z-score, replicate 1": 0.28}
{"target gene": "side-IV + asRNA:CR17025", "reagent no.": 2, "z-score, replicate 1": 0.17}
{"target gene": "CG31406", "reagent no.": 1, "z-score, replicate 1": 0.4}
{"target gene": "CG13526", "reagent no.": 1, "z-score, replicate 1": 0.39}
{"target gene": "Dph3 (Diphthamide biosynthesis 3)", "reagent no.": 1, "z-score, replicate 1": 0.45}
{"target gene": "CG12155", "reagent no.": 1, "z-score, replicate 1": -0.24}
{"target gene": "MED10 (Mediator complex subunit 10)", "reagent no.": 1, "z-score, replicate 1": -4.57}
{"target gene": "ND-B22 (NADH dehydrogenase (ubiquinone) B22 subunit)", "reagent no.": 1, "z-score, replicate 1": -0.52}
{"target gene": "bin3 (bicoid-interacting protein 3)", "reagent no.": 1, "z-score, replicate 1": 0.68}
{"target gene": "SiaT (Sialyltransferase)", "reagent no.": 1, "z-score, replicate 1": 0.2}

Reformatted: entries from further up
Tob (Transducer of ERBB2)
- z-score, replicate 1: 0.35

mex1 (midgut expression 1)
- z-score, replicate 1: 0.61
